{
  "source": "paper PMC6207757",
  "binders": {"B1": {"name": "Kinesin Family Member 24 (KIF24) (protein, UniProt Q5T7B8 1-1368)", "chain": "MASWLYECLCEAELAQYYSHFTALGLQKIDELAKITMKDYSKLGVHDMNDRKRLFQLIKIIKIMQEEDKAVSIPERHLQTSSLRIKSQELRSGPRRQLNFDSPADNKDRNASNDGFEMCSLSDFSANEQKSTYLKVLEHMLPDDSQYHTKTGILNATAGDSYVQTEISTSLFSPNYLSAILGDCDIPIIQRISHVSGYNYGIPHSCIRQNTSEKQNPWTEMEKIRVCVRKRPLGMREVRRGEINIITVEDKETLLVHEKKEAVDLTQYILQHVFYFDEVFGEACTNQDVYMKTTHPLIQHIFNGGNATCFAYGQTGAGKTYTMIGTHENPGLYALAAKDIFRQLEVSQPRKHLFVWISFYEIYCGQLYDLLNRRKRLFAREDSKHMVQIVGLQELQVDSVELLLEVILKGSKERSTGATGVNADSSRSHAVIQIQIKDSAKRTFGRISFIDLAGSERAADARDSDRQTKMEGAEINQSLLALKECIRALDQEHTHTPFRQSKLTQVLKDSFIGNAKTCMIANISPSHVATEHTLNTLRYADRVKELKKGIKCCTSVTSRNRTSGNSSPKRIQSSPGALSEDKCSPKKVKLGFQQSLTVAAPGSTRGKVHPLTSHPPNIPFTSAPKVSGKRGGSRGSPSQEWVIHASPVKGTVRSGHVAKKKPEESAPLCSEKNRMGNKTVLGWESRASGPGEGLVRGKLSTKCKKVQTVQPVQKQLVSRVELSFGNAHHRAEYSQDSQRGTPARPASEAWTNIPPHQKEREEHLRFYHQQFQQPPLLQQKLKYQPLKRSLRQYRPPEGQLTNETPPLFHSYSENHDGAQVEELDDSDFSEDSFSHISSQRATKQRNTLENSEDSFFLHQTWGQGPEKQVAERQQSLFSSPRTGDKKDLTKSWVDSRDPINHRRAALDHSCSPSKGPVDWSRENSTSSGPSPRDSLAEKPYCSQVDFIYRQERGGGSSFDLRKDASQSEVSGENEGNLPSPEEDGFTISLSHVAVPGSPDQRDTVTTPLREVSADGPIQVTSTVKNGHAVPGEDPRGQLGTHAEYASGLMSPLTMSLLENPDNEGSPPSEQLVQDGATHSLVAESTGGPVVSHTVPSGDQEAALPVSSATRHLWLSSSPPDNKPGGDLPALSPSPIRQHPADKLPSREADLGEACQSRETVLFSHEHMGSEQYDADAEETGLDGSWGFPGKPFTTIHMGVPHSGPTLTPRTGSSDVADQLWAQERKHPTRLGWQEFGLSTDPIKLPCNSENVTWLKPRPISRCLARPSSPLVPSCSPKTAGTLRQPTLEQAQQVVIRAHQEQLDEMAELGFKEETLMSQLASNDFEDFVTQLDEIMVLKSKCIQSLRSQLQLYLTCHGPTAAPEGTVPS"}},
  "target": "Flag-MPP9 (M-Phase Phosphoprotein 9) (not stated (human or mouse cDNA cloned))",
  "test": "affinity purification with mass spectrometry; anti-Flag immunoprecipitation from lysates (ELB buffer) of HEK293T cells overexpressing Flag-MPP9; bands of a silver-stained gel digested with trypsin, Orbitrap Elite",
  "note": "No constants are given. Whether binding was seen depends on the method and setting. Binding seen in cells or lysates may run through a third protein. A yes stands for co-enrichment or nearness to the bait. Other partners may have been found.",
  "data": [
    {"binder": "B1", "values": [
      {"measurement": "binding", "result": "binds"}
    ]}
  ]
}
